Results: the supplement of paper PMC10849652
This is one part of the list.

Sequences of proteins named here, by UniProt entry; tags and fusion partners are left off. A change or cut given only in a name is not applied to a line headed by its entry.
UniProt Q8IX15: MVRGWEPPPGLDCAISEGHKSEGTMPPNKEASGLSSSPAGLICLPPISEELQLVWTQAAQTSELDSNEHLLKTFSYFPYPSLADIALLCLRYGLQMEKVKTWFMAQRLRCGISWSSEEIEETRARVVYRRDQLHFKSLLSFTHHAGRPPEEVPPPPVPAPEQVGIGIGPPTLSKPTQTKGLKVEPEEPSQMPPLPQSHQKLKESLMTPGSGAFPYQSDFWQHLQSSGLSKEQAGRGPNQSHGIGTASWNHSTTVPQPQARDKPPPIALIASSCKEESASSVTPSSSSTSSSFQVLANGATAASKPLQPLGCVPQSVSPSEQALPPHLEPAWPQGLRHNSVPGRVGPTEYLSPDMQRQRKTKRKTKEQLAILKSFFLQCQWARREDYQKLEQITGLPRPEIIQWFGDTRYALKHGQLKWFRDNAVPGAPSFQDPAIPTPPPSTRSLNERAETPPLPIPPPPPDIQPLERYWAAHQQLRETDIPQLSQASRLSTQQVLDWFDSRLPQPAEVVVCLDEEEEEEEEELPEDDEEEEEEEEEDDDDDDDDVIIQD
UniProt P52789: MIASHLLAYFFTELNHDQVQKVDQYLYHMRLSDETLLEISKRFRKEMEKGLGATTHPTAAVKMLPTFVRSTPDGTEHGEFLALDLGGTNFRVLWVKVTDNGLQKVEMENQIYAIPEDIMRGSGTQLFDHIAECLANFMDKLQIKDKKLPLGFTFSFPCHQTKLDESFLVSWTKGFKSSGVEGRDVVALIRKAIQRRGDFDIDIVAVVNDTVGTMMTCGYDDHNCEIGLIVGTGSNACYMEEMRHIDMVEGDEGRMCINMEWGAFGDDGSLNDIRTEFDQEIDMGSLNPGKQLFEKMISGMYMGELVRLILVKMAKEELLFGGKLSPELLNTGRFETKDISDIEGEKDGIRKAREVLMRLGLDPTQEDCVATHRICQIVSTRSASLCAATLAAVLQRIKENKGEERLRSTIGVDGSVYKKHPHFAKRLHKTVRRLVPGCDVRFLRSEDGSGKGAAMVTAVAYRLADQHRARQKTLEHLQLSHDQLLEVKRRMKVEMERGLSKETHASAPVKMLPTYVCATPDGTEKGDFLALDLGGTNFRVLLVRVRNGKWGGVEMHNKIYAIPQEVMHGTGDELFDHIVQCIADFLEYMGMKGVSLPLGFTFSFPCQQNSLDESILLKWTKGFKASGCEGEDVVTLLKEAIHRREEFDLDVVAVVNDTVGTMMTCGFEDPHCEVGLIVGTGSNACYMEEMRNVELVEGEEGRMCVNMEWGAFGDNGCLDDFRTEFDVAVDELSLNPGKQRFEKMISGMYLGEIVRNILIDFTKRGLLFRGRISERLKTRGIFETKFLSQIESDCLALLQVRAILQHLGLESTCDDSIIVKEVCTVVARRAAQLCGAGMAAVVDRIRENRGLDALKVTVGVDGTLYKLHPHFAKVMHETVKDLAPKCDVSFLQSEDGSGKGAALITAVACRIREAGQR
UniProt Q8WVV9: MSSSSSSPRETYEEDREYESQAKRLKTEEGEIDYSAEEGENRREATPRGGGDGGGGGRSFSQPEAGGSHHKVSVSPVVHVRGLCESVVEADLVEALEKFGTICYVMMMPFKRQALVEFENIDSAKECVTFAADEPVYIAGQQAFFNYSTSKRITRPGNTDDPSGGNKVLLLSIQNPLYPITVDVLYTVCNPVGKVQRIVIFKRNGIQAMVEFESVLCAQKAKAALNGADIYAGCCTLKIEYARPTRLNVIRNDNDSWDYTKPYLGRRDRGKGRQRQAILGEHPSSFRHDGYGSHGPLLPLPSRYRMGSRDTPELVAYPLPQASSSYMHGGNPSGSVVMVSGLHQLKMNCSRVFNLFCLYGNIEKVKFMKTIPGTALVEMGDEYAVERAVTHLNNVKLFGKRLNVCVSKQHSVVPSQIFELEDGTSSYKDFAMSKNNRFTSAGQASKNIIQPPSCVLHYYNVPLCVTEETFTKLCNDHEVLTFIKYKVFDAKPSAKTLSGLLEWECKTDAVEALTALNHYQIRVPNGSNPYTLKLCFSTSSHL
UniProt P54652, whole entry, looked up: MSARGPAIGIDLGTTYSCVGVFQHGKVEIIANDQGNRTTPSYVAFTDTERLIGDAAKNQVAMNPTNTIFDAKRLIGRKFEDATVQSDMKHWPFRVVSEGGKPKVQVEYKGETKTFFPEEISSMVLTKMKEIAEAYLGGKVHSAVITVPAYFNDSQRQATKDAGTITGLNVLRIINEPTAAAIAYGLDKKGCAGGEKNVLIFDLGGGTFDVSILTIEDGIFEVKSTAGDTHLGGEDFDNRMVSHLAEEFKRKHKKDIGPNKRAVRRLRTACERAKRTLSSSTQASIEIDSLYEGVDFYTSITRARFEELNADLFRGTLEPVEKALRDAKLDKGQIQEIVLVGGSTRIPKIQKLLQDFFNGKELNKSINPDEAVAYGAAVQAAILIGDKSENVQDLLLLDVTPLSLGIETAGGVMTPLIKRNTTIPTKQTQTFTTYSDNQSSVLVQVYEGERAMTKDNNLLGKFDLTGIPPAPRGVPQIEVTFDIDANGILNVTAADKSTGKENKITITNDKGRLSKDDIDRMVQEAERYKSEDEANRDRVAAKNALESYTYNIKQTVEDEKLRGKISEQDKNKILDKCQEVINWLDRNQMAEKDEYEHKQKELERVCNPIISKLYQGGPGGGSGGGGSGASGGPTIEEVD
UniProt Q13151: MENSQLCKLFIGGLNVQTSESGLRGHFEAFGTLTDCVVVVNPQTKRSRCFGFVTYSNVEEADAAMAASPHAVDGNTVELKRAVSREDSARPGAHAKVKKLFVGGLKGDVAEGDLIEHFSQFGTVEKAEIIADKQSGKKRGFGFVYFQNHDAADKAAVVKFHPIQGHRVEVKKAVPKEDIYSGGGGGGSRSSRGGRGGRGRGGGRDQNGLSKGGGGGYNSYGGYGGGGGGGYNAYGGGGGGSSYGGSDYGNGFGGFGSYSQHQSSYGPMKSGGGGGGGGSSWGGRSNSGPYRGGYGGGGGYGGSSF
UniProt Q53FT3: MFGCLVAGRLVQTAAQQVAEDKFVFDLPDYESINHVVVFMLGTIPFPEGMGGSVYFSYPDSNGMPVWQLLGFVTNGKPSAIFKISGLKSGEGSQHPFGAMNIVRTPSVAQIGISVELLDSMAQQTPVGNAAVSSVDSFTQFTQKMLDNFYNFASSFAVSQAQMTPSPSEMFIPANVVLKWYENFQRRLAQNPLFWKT
UniProt P19367: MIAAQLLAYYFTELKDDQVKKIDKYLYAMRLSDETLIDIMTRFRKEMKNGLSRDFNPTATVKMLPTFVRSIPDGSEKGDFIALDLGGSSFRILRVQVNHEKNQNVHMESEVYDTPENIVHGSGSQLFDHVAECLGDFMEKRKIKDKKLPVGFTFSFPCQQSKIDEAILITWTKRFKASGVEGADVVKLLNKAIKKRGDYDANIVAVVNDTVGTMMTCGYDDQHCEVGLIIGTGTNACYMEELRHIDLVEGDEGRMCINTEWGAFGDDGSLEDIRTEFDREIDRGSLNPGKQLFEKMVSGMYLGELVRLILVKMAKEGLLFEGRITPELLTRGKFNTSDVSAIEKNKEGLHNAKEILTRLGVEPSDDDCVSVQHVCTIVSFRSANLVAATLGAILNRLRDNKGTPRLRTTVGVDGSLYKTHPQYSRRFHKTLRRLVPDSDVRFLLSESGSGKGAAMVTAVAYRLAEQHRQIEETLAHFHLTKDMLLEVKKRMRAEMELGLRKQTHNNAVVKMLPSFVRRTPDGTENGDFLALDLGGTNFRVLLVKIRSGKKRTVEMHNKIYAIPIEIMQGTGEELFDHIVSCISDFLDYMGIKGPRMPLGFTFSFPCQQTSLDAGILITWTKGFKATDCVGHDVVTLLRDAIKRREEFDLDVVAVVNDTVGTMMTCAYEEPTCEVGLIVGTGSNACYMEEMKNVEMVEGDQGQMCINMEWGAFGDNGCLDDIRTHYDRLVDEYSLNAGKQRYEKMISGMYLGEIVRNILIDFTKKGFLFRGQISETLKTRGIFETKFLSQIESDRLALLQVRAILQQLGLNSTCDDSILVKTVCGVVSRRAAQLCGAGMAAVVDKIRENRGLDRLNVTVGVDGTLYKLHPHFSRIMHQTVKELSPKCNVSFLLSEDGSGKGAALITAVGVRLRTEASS
UniProt Q9BX68: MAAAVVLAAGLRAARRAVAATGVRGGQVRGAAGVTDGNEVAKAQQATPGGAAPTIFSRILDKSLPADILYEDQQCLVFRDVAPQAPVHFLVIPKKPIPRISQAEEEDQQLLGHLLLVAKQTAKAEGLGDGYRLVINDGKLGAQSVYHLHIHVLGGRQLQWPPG
UniProt Q92506: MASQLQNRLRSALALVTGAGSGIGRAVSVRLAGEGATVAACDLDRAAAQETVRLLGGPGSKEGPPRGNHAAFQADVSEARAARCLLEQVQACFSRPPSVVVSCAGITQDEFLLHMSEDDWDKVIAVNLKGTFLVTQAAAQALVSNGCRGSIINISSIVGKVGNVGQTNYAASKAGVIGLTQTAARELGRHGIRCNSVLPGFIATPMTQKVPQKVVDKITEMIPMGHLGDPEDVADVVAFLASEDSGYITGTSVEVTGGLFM
UniProt P50135: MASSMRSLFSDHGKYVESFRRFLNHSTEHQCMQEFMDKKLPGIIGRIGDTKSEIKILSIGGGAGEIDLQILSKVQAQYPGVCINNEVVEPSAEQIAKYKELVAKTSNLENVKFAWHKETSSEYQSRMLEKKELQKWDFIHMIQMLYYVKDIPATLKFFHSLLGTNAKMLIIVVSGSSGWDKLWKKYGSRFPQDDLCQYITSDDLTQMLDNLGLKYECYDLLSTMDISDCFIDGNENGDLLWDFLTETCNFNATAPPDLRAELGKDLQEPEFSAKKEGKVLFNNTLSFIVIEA

What was measured:
Experiment in all cases: log2 fold change, soluble protein after heating vs DMSO (PISA); higher = thermal stabilisation; K562 lysate, 10 uM; active = over 0.2 and 3.5 SD of the protein, either way, in both replicates (recomputed)
erlotinib = compound: C#Cc1cccc(Nc2ncnc3cc(OCCOC)c(OCCOC)cc23)c1 [erlotinib]
Outline: (§1)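 To prepare the extract, K562 pellets were dounce-homogenised in PBS pH 7.4 with 1 mM MgCl2, giving crude material at 1 mg/mL protein. This was treated with 10 μM compound for 30 min, then heated in aliquots for 3 min over 48°C-58°C before pooling and addition of NP-40 to 0.5% at 4°C. Centrifugation at 21,000xg for 90 min left soluble protein in the supernatant, which TMTpro 16plex LC-MS/MS quantified with equalised channel sums. Results are log-two fold changes in thermal stability compared with solvent controls, from duplicates.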

[1] = compound: C/C(=N\NC(=O)C1=CC(=CC=C1)S(=O)(=O)N2CCOCC2)/C3=C(C=CC(=C3)Cl)O
Outline: as §1

[2] = compound: C1=CC(=CC=C1C2=NC3=C(N2)C=C(C=C3)C(=O)N)OC4=CC=C(C=C4)Cl
Outline: as §1

[3] = compound: C1=CC2=C(C=CC(=C2)/C=C\3/C(=O)NC(=NCC4=CC=CS4)S3)N=C1
Outline: as §1

[4] = compound: C1=CC2=NC=CN=C2C=C1/C=C/3\C(=O)NC(=O)S3
Outline: as §1

[5] = compound: C1=CC=C(C=C1)C2=NC(=C(N2)C3=CC=NC=C3)C4=CC(=C(C=C4)Cl)O
Outline: as §1

[6] = compound: C1=CC=C2C(=C1)C3=NNC4=CC=CC(=C43)C2=O
Outline: as §1

[7] = compound: C1CCN(C1)C(=O)NC2=CC=CC(=C2)NC3=NC=C(C(=N3)NCCC4=CN=CN4)Br
Outline: as §1

[8] = compound: C1CN(CCC1(CC2=CC=C(C=C2)Cl)N)C3=NC=NC4=C3C=CN4
Outline: as §1

IRAK-1-4 Inhibitor I = compound: C1COCCN1CCN2C3=CC=CC=C3N=C2NC(=O)C4=CC(=CC=C4)[N+](=O)[O-] [IRAK-1-4 Inhibitor I]
Outline: as §1

ibrutinib = compound: C=CC(=O)N1CCC[C@@H](n2nc(-c3ccc(Oc4ccccc4)cc3)c3c(N)ncnc32)C1 [ibrutinib]
Outline: as §1

[9] = compound: CC(=O)c1cnc2ccc(-c3cc(Cl)c(O)c(Cl)c3)nc2c1N[C@H]1CC[C@H](CN(C)C)CC1
Outline: as §1

ralimetinib = compound: CC(C)(C)Cn1c(N)nc2ccc(-c3[nH]c(C(C)(C)C)nc3-c3ccc(F)cc3)nc21 [ralimetinib]
Outline: as §1

[10] = compound: CC(C)(O)CC(=O)NCCn1ccc2ncnc(Nc3ccc(Oc4cccc(C(F)(F)F)c4)c(Cl)c3)c21
Outline: as §1

[11] = compound: CC(C)C1=C2N=C(C=C(N2N=C1)NCC3=CC=CC=C3)NCCCCCCN
Outline: as §1

[12] = compound: CC1=C(C(CC(=O)N1)C2=CC=C(C=C2)C(F)(F)F)C(=O)NC3=C(C=C4C(=C3)C=NN4)F
Outline: as §1

[13] = compound: CC1=C(C2=C(C=C1)C(=O)C3=CC=CC=C3N2CCCN)C
Outline: as §1

[14] = compound: CC1=C(C=C(C=C1)NC(=O)C2=CC(=CC=C2)C(C)(C)C#N)NC3=CC4=C(C=C3)N=CN(C4=O)C
Outline: as §1

[15] = compound: CC1=C(C=C(C=C1)NC(=O)C2=CC(=CC=C2)N(C)C)NC(=O)C3=CC=C(C=C3)O
Outline: as §1

[16] = compound: CC1=CC=C(C=C1)SC2=C3C=C(SC3=CN=C2)C(=O)N
Outline: as §1

Measured: log2 fold change

HOMEZ isoform 3 (UniProt Q8IX15)
inactive: erlotinib 0.024 | [1] -0.332 | [2] 0.081 | [3] -0.015 | [4] -0.081 | [5] 0.071 | [6] -0.018 | [7] 0.025 | [8] 0.074 | IRAK-1-4 Inhibitor I -0.031 | ibrutinib 0.011 | [9] -0.118 | ralimetinib 0.068 | [10] -0.067 | [11] 0.058 | [12] 0.044 | [13] -0.042 | [14] 0.016 | [15] -0.015 | [16] -0.007

HK2 (UniProt P52789)
inactive: erlotinib 0.013 | [1] 0.007 | [2] -0.045 | [3] 0.019 | [4] -0.01 | [5] 0.026 | [6] -0.027 | [7] -0.016 | [8] 0.004 | IRAK-1-4 Inhibitor I -0.002 | ibrutinib 0.021 | [9] -0.005 | ralimetinib 0.019 | [10] 0.006 | [11] -0.029 | [12] -0.007 | [13] 0.006 | [14] 0.008 | [15] 0.002 | [16] 0.011

HNRNPLL (UniProt Q8WVV9)
inactive: erlotinib 0.007 | [1] 0 | [2] 0.011 | [3] 0.009 | [4] -0.017 | [5] -0.019 | [6] -0.035 | [7] 0.006 | [8] -0.009 | IRAK-1-4 Inhibitor I -0.026 | ibrutinib -0.024 | [9] 0.016 | ralimetinib 0.005 | [10] 0.005 | [11] -0.004 | [12] -0.019 | [13] -0.012 | [14] 0.026 | [15] 0.024 | [16] 0.021

HSPA2 (UniProt P54652)
inactive: erlotinib -0.025 | [1] 0.112 | [2] 0.09 | [3] -0.037 | [4] -0.017 | [5] 0.012 | [6] -0.117 | [7] 0.022 | [8] 0.138 | IRAK-1-4 Inhibitor I 0.052 | ibrutinib 0.036 | [9] 0.02 | ralimetinib 0.019 | [10] -0.118 | [11] -0.02 | [12] -0.006 | [13] 0.004 | [14] 0.022 | [15] 0.065 | [16] -0.11

HNRNPA0 (UniProt Q13151)
inactive: erlotinib 0.017 | [1] 0.186 | [2] -0.06 | [3] -0.072 | [4] 0.036 | [5] -0.011 | [6] 0.074 | [7] 0.066 | [8] 0.088 | IRAK-1-4 Inhibitor I -0.011 | ibrutinib 0.011 | [9] -0.041 | ralimetinib 0.023 | [10] 0.007 | [11] 0.011 | [12] -0.004 | [13] -0.005 | [14] 0.036 | [15] -0.017 | [16] 0.019

HIKESHI (UniProt Q53FT3)
inactive: erlotinib -0.015 | [1] 0.173 | [2] -0.023 | [3] -0.073 | [4] 0.055 | [5] 0.002 | [6] 0.044 | [7] 0.039 | [8] 0.013 | IRAK-1-4 Inhibitor I -0.019 | ibrutinib 0.054 | [9] -0.002 | ralimetinib 0.087 | [10] -0.012 | [11] -0.039 | [12] -0.003 | [13] -0.005 | [14] -0.029 | [15] 0.003 | [16] 0.034

HK1 isoform 2 (UniProt P19367)
inactive: erlotinib -0.027 | [1] -0.006 | [2] 0.009 | [3] 0.006 | [4] 0.007 | [5] 0.007 | [6] -0.006 | [7] 0.001 | [8] 0.014 | IRAK-1-4 Inhibitor I -0.002 | ibrutinib -0.007 | [9] 0.005 | ralimetinib -0.008 | [10] 0.021 | [11] -0.029 | [12] -0.029 | [13] 0.025 | [14] 0.023 | [15] 0.016 | [16] 0.008

HRAS (UniProt P01112)
inactive: erlotinib -0.044 | [2] -0.037 | [5] 0.037 | [7] -0.034 | [8] 0.021 | IRAK-1-4 Inhibitor I 0.012 | [9] -0.018 | ralimetinib -0.025 | [10] 0.07 | [11] 0 | [12] -0.016 | [13] -0.063 | [14] 0.006 | [15] 0.081 | [16] 0.08

HINT2 (UniProt Q9BX68)
inactive: erlotinib -0.044 | [1] 0.063 | [2] -0.07 | [3] 0.052 | [4] -0.018 | [5] -0.09 | [6] 0.049 | [7] -0.011 | [8] 0.027 | IRAK-1-4 Inhibitor I -0.077 | ibrutinib 0.071 | [9] -0.009 | ralimetinib 0.065 | [10] 0.001 | [11] 0 | [12] -0.054 | [13] -0.017 | [14] 0.024 | [15] -0.014 | [16] 0.077

HSD17B8 (UniProt Q92506)
inactive: erlotinib 0.003 | [1] 0.041 | [2] -0.091 | [3] -0.099 | [4] 0.009 | [5] 0.018 | [6] 0.018 | [7] -0.011 | [8] 0.026 | IRAK-1-4 Inhibitor I 0.006 | ibrutinib 0.025 | [9] 0.037 | ralimetinib -0.01 | [10] -0.047 | [11] -0.028 | [12] -0.056 | [13] -0.016 | [14] -0.013 | [15] -0.09 | [16] -0.002

HNMT (UniProt P50135)
inactive: erlotinib -0.145 | [2] 0.108 | [4] 0.134 | [7] 0.016 | [8] 0.269 | ibrutinib 0.058 | [9] 0.126 | [11] 0.018 | [13] -0.151 | [16] -0.058
